Assay results from publication PMC10450186.
These are yes or no findings as the source states them, for the method shown. Where a sequence is shown, tags or fusion partners need not be part of it.

Sequences of proteins named here, by UniProt entry; tags and fusion partners are left off. A change or cut given only in a name is not applied to a line headed by its entry.
UniProt P15927: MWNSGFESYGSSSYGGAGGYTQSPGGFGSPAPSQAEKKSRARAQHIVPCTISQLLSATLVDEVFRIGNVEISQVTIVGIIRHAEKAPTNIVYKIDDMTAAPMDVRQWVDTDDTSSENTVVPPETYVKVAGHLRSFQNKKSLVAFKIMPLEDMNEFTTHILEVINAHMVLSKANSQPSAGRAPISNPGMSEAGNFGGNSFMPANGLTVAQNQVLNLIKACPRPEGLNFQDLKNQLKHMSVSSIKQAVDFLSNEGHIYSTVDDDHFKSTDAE
UniProt P35244: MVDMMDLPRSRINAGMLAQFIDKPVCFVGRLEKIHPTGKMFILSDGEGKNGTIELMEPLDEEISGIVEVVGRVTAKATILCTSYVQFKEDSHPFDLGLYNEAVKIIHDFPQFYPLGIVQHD

Target: RPA trimer consisting of the RPA70, RPA32 and RPA14 subunits, purified (human) (UniProt P27694+P15927+P35244)
Assay: native gel or EMSA; NSMF-eGFP with unlabeled RPA bound to Cy5-labeled ssDNA; reaction buffer 50 mM Tris-HCl [7.5], 50 mM NaCl, 1 mM DTT, 0.01% Tween-20, 23°C; both purified

B1: full-length NSMF tagged with 3×FLAG at the N-terminus and eGFP at the C-terminus, purified (protein, UniProt Q6X4W1 1-530)
chain: MGAAASRRRALRSEAMSSVAAKVRAARAFGEYLSQSHPENRNGADHLLADAYSGHDGSPEMQPAPQNKRRLSLVSNGCYEGSLSEEPSIRKPAGEGPQPRVYTISGEPALLPSPEAEAIELAVVKGRRQRHPHHHSQPLRASPGGSREDVSRPCQSWAGSRQGSKECPGCAQLAPGPTPRAFGLDQPPLPETSGRRKKLERMYSVDRVSDDIPIRTWFPKENLFSFQTATTTMQAISVFRGYAERKRRKRENDSASVIQRNFRKHLRMVGSRRVKAQTFAERRERSFSRSWSDPTPMKADTSHDSRDSSDLQSSHCTLDEAFEDLDWDTEKGLEAVACDTEGFVPPKVMLISSKVPKAEYIPTIIRRDDPSIIPILYDHEHATFEDILEEIERKLNVYHKGAKIWKMLIFCQGGPGHLYLLKNKVATFAKVEKEEDMIHFWKRLSRLMSKVNPEPNVIHIMGCYILGNPNGEKLFQNLRTLMTPYRVTFESPLELSAQGKQMIETYFDFRLYRLWKSRQHSKLLDFDDVL
binding: no binding (condition: RPA bound to Cy5-labeled ssDNA)
